# Test results from PubChem BioAssay AID1347146 (National Center for Advancing Translational Sciences (NCATS), 2019).
# By UniProt entry, the sequences of proteins in these tests, tags left out. Where a name states a change or a piece, a line headed by the entry shows the natural chain unless it says otherwise.
# UniProt P40261: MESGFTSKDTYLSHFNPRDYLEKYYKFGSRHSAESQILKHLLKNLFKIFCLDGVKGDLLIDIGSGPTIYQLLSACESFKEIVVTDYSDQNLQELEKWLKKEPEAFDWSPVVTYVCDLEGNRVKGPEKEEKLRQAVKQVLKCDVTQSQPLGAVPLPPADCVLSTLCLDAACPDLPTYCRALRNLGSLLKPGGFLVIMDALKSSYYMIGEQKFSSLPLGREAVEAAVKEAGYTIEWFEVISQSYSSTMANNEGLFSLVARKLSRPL
# The hits were mostly taken out for another list; the other results follow. Results filed as inconclusive are left out. Activity calls are given as the source filed them. The call rests on the fitted dose curve; in most records, active means well fitted inhibition curve with a large enough effect; inconclusive means small, poorly fitted or top-dose-only effect; inactive means no such curve, though single readings can be large or run the other way.
# Target: Nicotinamide N-methyltransferase (Homo sapiens) (UniProt P40261)
# Assay: qHTS Assay for Inhibitors of N-terminal methyltransferase 1 (NTMT1): NNMT MTaseGlo counterscreen assay;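 further: plate controls were DMSO without inhibitor for no effect and no-enzyme control for full effect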
# Conditions: NNMT enzyme, MTase-Glo luminescence counterscreen; at 57.1 µM (top of the series)
# Excerpt: Assay Submitter (PI): Rong Huang Ph.D, Purdue University, West Lafayette, IN 47907
# The N-terminal methytransferase 1 is the first methyltransferase that methylates protein alpha-N-amines and plays an important role in regulating cell mitosis, chromatin interactions and DNA repair. It is observed to be over-expressed in various cancer patient tissues like malignant melanoma and colorectal cancer tissues. Knockdown of NTMT1 in cancer cells causes cell mitotic defects and enhances sensitivity to DNA damaging chemotherapeutics. […] To address this unmet need, a panel of assay is created and established to enable quantitative high-throughput screening (qHTS) for novel, potent, and selective small molecule NTMT1 inhibitors. […]
# MTaseGlo Assay is a luminescence screen that measure the activity of methyltransferases based on the reaction product S-adenosyl homocysteine (SAH). […]
# In brief, 3 µL of enzyme mixture (final concentrations of 125 nM and 100 µM for NNMT and SAM, respectively) into all wells of a 1,536-well solid-bottom white plate (Greiner Bio One, Monroe, NC). […] MTase-Glo Detection Solution(R) to allow for ADP to be converted to ATP, which was then detected with a luciferase reaction. […] Plates were then read using Luminescence optics on a ViewLux detector. […]
smiles,measurement,value
Oc1cc2c(c(Cl)c1O)CCNCC2c1ccccc1 (stereo unspecified),"activity change, negative = inhibition",inactive: -12.1%
